Experiments:
Assay type in all cases: biochemical
[1] = Enzyme-catalyzed acylation of 1,2-ethanediol with ethyl acetate as acyl donor (Example 2)
Protocol: (§1) Each diol was dissolved to a concentration of 20 mM together with 5 mM of 3-hexanone in ethyl acetate, ≧99% from Fluka, which was used as acyl donor and solvent. Reactions were started by adding 4 ml reaction solution to 20 mg enzyme carrier beads loaded with either wild-type or T40A mutated CALB. Reactions were run at 29° C. on a HLC rotating thermo block. Aliquots of 50 μl were taken, filtered through wool in a Pasteur pipette and diluted with 50 μl ethyl acetate prior to analysis. The 3-hexanon used as internal standard were present in the reaction solution throughout both reaction and analysis.
(§2) 5 mM 3-hexanone was used as internal standard in the reaction mixtures together with 20 mM diol. Aliquots were taken during the reaction by taking 50 μl of reaction sample. The samples were filtered though wool together with 50 μl ethyl acetate, thereby any remaining enzyme were removed and the reaction samples were diluted by a factor of 2 prior to analysis.
(§3) The reactions catalyzed by the T40A-mutant were rerun with 100 mg enzyme carrier beads for determination of maximum monoester yield. […]
(§4) All reactions were analyzed on GC, Hewlett Packard 5890 series II. Two different 25 m×0.32 mm WCOT fused silica columns were used, depending on the different substrates and products that were analyzed. […]
(§5) The response factor for each diol was determined in relationship to 3-hexanone. When all diol and mono-ester had converted to di-ester, the response factor for the di-ester could be determined in relationship to […]. The concentration of mono-ester in each reaction was determined by subtracting the concentration of di-ester from the starting concentration of diol. […]
(§6) The reaction rates are dependent on enzyme concentrations and the kcat/KM towards the substrates. By fitting the concentrations measured over time into the equations and using the enzyme concentration determined by active site titration, the following results were obtained.

[2] = Enzyme-catalyzed acylation of 1,3-propanediol with ethyl acetate as acyl donor (Example 2)
Protocol: as §1, §2, §3, §4, §5, §6

[3] = Enzyme selectivities and specificities towards 1,2-ethanediol with vinyl acetate or vinyl butyrate in MTBE (Example 7)
Protocol: (§7) Reactions using the CALB mutants as described in Example 5 and Example 6 were run with two different straight chain primary diols: 1,2-ethanediol, ≧99.5% from MERCK and 1,4-butanediol, ≧99% from Aldrich. Two different acyl donors were used: vinyl acetate, ≧99% from Fluka and vinyl butyrate, >99% from Fluka. Decane, ≧99% from Fluka, was used as internal standard. MTBE, 99.5% from Lab-Scan was used as solvent.
(§8) Each diol was dissolved to a concentration of 100 mM together with 1 M of the acyl donor and 20 mM decane in MTBE. Reactions were started by adding 3 ml reaction solution to a specific amount of enzyme carrier beads. Different amounts of enzyme carrier beads were used for the different reactions. For reactions with 1,2-ethanediol and vinyl acetate, 19.7 mg wild type, 22.5 mg A282L, 50.5 mg A281V, and 45.5 A281E CALB were used. […]
(§9) All reactions were analyzed on GC, Hewlett Packard 5890 series II. Two different 25 m×0.32 mm WCOT fused silica columns were used, depending on the different substrates and products that were analyzed. […] The response factor for each diol was determined in relationship to decane. When all diol and mono-ester had converted to di-ester, the response factor for the di-ester could be determined in relationship to decane. The concentration of mono-ester in each reaction was determined by subtracting the concentration of di-ester from the starting concentration of diol.

[4] = Enzyme selectivities and specificities towards 1,4-butanediol with vinyl acetate or vinyl butyrate in MTBE (Example 7)
Protocol: as §7, §8, §9

| Molecule | ΔΔG, diol-monoester [1] [kcal/mol] | ΔΔΔG, T40A-WT [1] [kcal/mol] | ΔΔG, diol-monoester [2] [kcal/mol] | ΔΔΔG, T40A-WT [2] [kcal/mol] | ΔΔG ([3]; vinyl acetate) [kcal/mol] | ΔΔG ([3]; vinyl butyrate) [kcal/mol] | ΔΔG ([4]; vinyl acetate) [kcal/mol] | ΔΔG ([4]; vinyl butyrate) [kcal/mol] |
| --- | --- | --- | --- | --- | --- | --- | --- | --- |
| T40A: CALB mutant with single mutation Thr40Ala (SEQ ID NO: 4) | 1.22 | 0.837 | 0.526 | 0.574 |  |  |  |  |
| WT: non-mutated Candida antarctica lipase B (CALB), SEQ ID NO: 2, immobilized on carrier beads (protein, listed as Candida antarctica, immobilized on carrier beads) LPSGSDPAFSQPKSVLDAGLTCQGASPSSVSKPILLVPGTGTTGPQSFDSNWIPLSAQLGYTPCWISPPPFMLNDTQVNTEYMVNAITTLYAGSGNNKLPVLTWSQGGLVAQWGLTFFPSIRSKVDRLMAFAPDYKGTVLAGPLDALAVSAPSVWQQTTGSALTTALRNAGGLTQIVPTTNLYSATDEIVQPQVSNSPLDSSYLFNGKNVQAQAVCGPLFVIDHAGSLTSQFSYVVGRSALRSTTGQARSADYGITDCNPLPANDLTPEQKVAAAALLAPAAAAIVAGPKQNCEPDLMPYARPFAVGKRTCSGIVTP | 0.382 |  | -0.0406 |  | 0.14 | -0.406 | -0.454 | -0.406 |

From patent US8715970B2, “Enzymatically catalyzed method of preparing mono-acylated polyols” (BASF SE, priority 2009, dated 2014)
